The test system of this test is M. mycetomatis strain mm55. The settings on record: primary screen, metabolic activity vs growth control, 96 h, 2 µM, inhibitor.

Counter-ions that a name gives are not always drawn. Like-named read-outs stand apart in the source and are kept apart here. About 130 (2.5%) of roughly 5,300 compounds showed an effect of 50% or more. The list shows a part of the results.

For the molecule `CCCCCCCCCCCCCCCCCCCCCCCCCCCCO` [ONC0002583, 1octacosanol], the “% viability” value is reported as 52.64%.

As to `O=C(O)CN1CCN(CC(=O)O)CCN(CC(=O)O)CCN(CC(=O)O)CC1` [ONC0005363, gadoteratemeglumine], the “% viability” value was determined as 111.7%.

As for `NC(=O)NC(=O)Cc1ccccc1` [ONC0000460, phenacemide], the “% viability” value was found to be 68.16%.

As to `COC1=C2C[C@@H](C)C[C@H](OC)[C@H](O)[C@@H](C)/C=C(\C)[C@H](OC(N)=O)[C@@H](OC)/C=C\C=C(/C)C(=O)NC(=CC1=O)C2=O` [ONC0004394, geldanamycin], the “% viability” value was determined as 128.8%.

As to `CCCCC/N=c1/ccn(Cc2ccccc2)c2ccccc12` [ONC0001739, cp339818], the “% viability” value is reported as 63.89%.

For `CCOC(=O)c1ncc2[nH]c3cccc(OC(C)C)c3c2c1C` [ONC0001558, zk93426], the “% viability” value was determined as 103.6%.

Regarding `CCCCCCCCCCCCCCCC(=O)OC1C(SC)OC(C(NC(=O)C2CC(CCC)CN2C)C(C)Cl)C(O)C1O` (stereo not drawn) [ONC0004643, clindamycin palmitate hcl], the “% viability” value is recorded as 84.71%.

For `CNC(=O)Nc1ccc(-c2nc(N3CC4CCC(C3)O4)c3cnn(C4CCC5(CC4)OCCO5)c3n2)cc1` [ONC0004343, wye125132], the “% viability” value came to 112.1%.

`COC(=O)c1cc(OC)c2c(c1-c1c(CO)cc(OC)c3c1OCO3)OCO2` [ONC0002187, bicyclol]: the “% viability” value amounted to 70.1%.

As for `COc1ccc(CNC(=O)c2cc(-c3cncc(C)c3)ncc2-c2nccs2)nc1OC` [ONC0002387, mk3697], the “% viability” value is 94.77%.

Consider `CC(CN(C)C)CN1c2ccccc2Sc2ccccc21` (stereo not drawn) [ONC0005525, trimeprazine], for which the “% viability” value (Madurella mycetomatis metabolic activity at 2µM (%)) is recorded as 66.12%.

With `CC(C)(C)NC(=O)N[C@H](C(=O)N1C[C@H]2[C@@H]([C@H]1C(=O)NC(CC1CCC1)C(=O)C(N)=O)C2(C)C)C(C)(C)C` (stereo partly drawn) [ONC0001071, boceprevir], the “% viability” value is 43.8%.

As to `CCC(CC)CC1(C(=O)Nc2ccccc2SC(=O)C(C)C)CCCCC1` [ONC0005201, dalcetrapibü¾Œ¶„¼ü¾Ž†„¼jtt705ü¾Œ¶„¼], the “% viability” value was determined as 98.31%.

Consider `CN1[C@@H](CC(=O)c2ccccc2)CCC[C@H]1C[C@H](O)c1ccccc1` [ONC0005605, lobeline hydrochloride], for which the “% viability” value came out at 124.7%.

As to `Cn1cc(-c2ccc3nnc(C(F)(F)c4ccc5ncccc5c4)n3n2)cn1` [ONC0004892, jnj38877605], the “% viability” value was found to be 97.57%.

As for `c1ccc2[nH]c(-c3cscn3)nc2c1` [ONC0000541, thiabendazole], the “% viability” value is listed as 57.17%.

Consider `CNC(=O)O[C@H]1COc2ccc(N3CCN(C4COC4)CC3)cc2[C@@H]1NC(=O)c1ccc(F)cc1` [ONC0000827, ly 3000328], for which the “% viability” value is 94.11%.

On to `OC[C@@H](O)[C@@H](O[C@@H]1O[C@H](CO)[C@H](O)[C@H](O)[C@H]1O)[C@H](O)[C@@H](O)CO` [ONC0004170, dlactitol monohydrate], for which the “% viability” value is recorded as 63.72%.

As for `O=S(=O)(NC1CCNCC1)c1cc(S(=O)(=O)c2ccccc2)ccc1C(F)(F)F` [ONC0005407, way 316606], the “% viability” value is listed as 95.75%.

For `NCCC(=O)N[C@@H](Cc1cnc[nH]1)C(=O)O` [ONC0002788, carnosine], the “% viability” value is 115.1%.

As for `OCc1ccc(-c2nn(Cc3ccccc3)c3ccccc23)o1` [ONC0000936, yc1], the “% viability” value is 76.91%.

Take `NC(=O)c1cccnc1` [ONC0004155, niacinamide]: the “% viability” value is on record as 69.05%.

Regarding `Nc1nccs1` [ONC0002889, aminothiazole], the “% viability” value was 91.61%.

With `CC(C)C[C@H](N)C(=O)O` [ONC0005412, lleucine], the “% viability” value is on record as 80.97%.

Regarding `Cn1c(=O)c2c(ncn2CC(O)CO)n(C)c1=O` (stereo not drawn) [ONC0000729, dyphylline], the “% viability” value was found to be 103.6%.

On to `CCCc1nc(C(C)(C)O)c(C(=O)OCc2oc(=O)oc2C)n1Cc1ccc(-c2ccccc2-c2nnn[nH]2)cc1` [ONC0003883, olmesartan medoxomil], for which the “% viability” value came out at 72.02%.

As for `CCCc1nc(C)c2c(=O)[nH]c(-c3cc(S(=O)(=O)N4CCN(CC)CC4)ccc3OCC)nn12` [ONC0003921, vardenafil hydrochloride], the “% viability” value is recorded as 67.78%.

As for `C=C(NC(=O)C(=C)NC(=O)c1csc(C2=N[C@@H]3c4csc(n4)[C@H]4NC(=O)c5csc(n5)[C@H]([C@](C)(O)[C@@H](C)O)NC(=O)[C@H]5CSC(=N5)/C(=C/C)NC(=O)[C@H]([C@@H](C)O)NC(=O)c5csc(n5)[C@]3(CC2)NC(=O)[C@H](C)NC(=O)C(=C)NC(=O)[C@H](C)NC(=O)[C@H]([C@@H](C)CC)N[C@@H]2C=Cc3c([C@H](C)O)cc(nc3[C@H]2O)C(=O)O[C@@H]4C)n1)C(N)=O` [ONC0002225, thiostrepton], the “% viability” value was 89.5%.

With `NCc1c[nH]c(=S)n1[C@H]1CCc2c(F)cc(F)cc2C1` [ONC0000919, nepicastat hydrochloride], the “% viability” value was determined as 71.78%.

As to `O=C(O)CCc1nc2ccccc2[nH]1` [ONC0005334, procodazole], the “% viability” value is listed as 117.3%.

In the case of `CC(=C(CCO)SSCC1CCCO1)N(C=O)Cc1cnc(C)nc1N` (stereo in doubt) [ONC0002347, fursultiamine], the “% viability” value is 90.21%.

Take `C[C@@H]1CC2C3C[C@H](F)C4=CC(=O)C=C[C@]4(C)[C@@]3(F)[C@@H](O)C[C@]2(C)[C@@]1(O)C(=O)COC(=O)C(C)(C)C` (stereo partly drawn) [ONC0000418, flumethazone pivalate]: the “% viability” value was found to be 69.31%.

As for `CCC1C(O)C2C3CCC(C(C)CCC(=O)O)C3(C)CCC2C2(C)CCC(O)CC12` (stereo not drawn) [ONC0004436, obeticholic acid], the “% viability” value is recorded as 127.4%.

Take `CC(=O)[C@@]1(O)CC[C@H]2[C@@H]3C[C@H](C)C4=CC(=O)CC[C@]4(C)[C@H]3CC[C@@]21C` [ONC0001078, medroxyprogesterone]: the “% viability” value is listed as 90.02%.

Consider `CCCCCCCCCCCCCCCC[N+](C)(C)C` [ONC0002897, cetrimonium bromide], for which the “% viability” value is 96.9%.

With `O=C(NCc1ccc(Oc2ccccc2)cc1)c1nc(-c2cc(Br)c(O)c(Br)c2)no1` [ONC0004397, iowh 032], the “% viability” value worked out at 153.6%.

The record behind these values is article PMC12670160, “A drug-repurposing screen of FDA- and EMA-approved drugs identifies two NF-κB inhibitors active against eumycetoma” (Journal of Antimicrobial Chemotherapy, 2025).
